Measurements as given in article doi:10.1101/2021.02.18.431811.
Like-named read-outs stand apart in the source and are kept apart here. These are yes or no findings as the source states them, for the method shown. In cells and extracts the contact can be indirect. Some binding calls cover weakened binding; strength is not graded here.

Chains of the proteins cited; added tags and fusions are not shown.
UniProt Q92736: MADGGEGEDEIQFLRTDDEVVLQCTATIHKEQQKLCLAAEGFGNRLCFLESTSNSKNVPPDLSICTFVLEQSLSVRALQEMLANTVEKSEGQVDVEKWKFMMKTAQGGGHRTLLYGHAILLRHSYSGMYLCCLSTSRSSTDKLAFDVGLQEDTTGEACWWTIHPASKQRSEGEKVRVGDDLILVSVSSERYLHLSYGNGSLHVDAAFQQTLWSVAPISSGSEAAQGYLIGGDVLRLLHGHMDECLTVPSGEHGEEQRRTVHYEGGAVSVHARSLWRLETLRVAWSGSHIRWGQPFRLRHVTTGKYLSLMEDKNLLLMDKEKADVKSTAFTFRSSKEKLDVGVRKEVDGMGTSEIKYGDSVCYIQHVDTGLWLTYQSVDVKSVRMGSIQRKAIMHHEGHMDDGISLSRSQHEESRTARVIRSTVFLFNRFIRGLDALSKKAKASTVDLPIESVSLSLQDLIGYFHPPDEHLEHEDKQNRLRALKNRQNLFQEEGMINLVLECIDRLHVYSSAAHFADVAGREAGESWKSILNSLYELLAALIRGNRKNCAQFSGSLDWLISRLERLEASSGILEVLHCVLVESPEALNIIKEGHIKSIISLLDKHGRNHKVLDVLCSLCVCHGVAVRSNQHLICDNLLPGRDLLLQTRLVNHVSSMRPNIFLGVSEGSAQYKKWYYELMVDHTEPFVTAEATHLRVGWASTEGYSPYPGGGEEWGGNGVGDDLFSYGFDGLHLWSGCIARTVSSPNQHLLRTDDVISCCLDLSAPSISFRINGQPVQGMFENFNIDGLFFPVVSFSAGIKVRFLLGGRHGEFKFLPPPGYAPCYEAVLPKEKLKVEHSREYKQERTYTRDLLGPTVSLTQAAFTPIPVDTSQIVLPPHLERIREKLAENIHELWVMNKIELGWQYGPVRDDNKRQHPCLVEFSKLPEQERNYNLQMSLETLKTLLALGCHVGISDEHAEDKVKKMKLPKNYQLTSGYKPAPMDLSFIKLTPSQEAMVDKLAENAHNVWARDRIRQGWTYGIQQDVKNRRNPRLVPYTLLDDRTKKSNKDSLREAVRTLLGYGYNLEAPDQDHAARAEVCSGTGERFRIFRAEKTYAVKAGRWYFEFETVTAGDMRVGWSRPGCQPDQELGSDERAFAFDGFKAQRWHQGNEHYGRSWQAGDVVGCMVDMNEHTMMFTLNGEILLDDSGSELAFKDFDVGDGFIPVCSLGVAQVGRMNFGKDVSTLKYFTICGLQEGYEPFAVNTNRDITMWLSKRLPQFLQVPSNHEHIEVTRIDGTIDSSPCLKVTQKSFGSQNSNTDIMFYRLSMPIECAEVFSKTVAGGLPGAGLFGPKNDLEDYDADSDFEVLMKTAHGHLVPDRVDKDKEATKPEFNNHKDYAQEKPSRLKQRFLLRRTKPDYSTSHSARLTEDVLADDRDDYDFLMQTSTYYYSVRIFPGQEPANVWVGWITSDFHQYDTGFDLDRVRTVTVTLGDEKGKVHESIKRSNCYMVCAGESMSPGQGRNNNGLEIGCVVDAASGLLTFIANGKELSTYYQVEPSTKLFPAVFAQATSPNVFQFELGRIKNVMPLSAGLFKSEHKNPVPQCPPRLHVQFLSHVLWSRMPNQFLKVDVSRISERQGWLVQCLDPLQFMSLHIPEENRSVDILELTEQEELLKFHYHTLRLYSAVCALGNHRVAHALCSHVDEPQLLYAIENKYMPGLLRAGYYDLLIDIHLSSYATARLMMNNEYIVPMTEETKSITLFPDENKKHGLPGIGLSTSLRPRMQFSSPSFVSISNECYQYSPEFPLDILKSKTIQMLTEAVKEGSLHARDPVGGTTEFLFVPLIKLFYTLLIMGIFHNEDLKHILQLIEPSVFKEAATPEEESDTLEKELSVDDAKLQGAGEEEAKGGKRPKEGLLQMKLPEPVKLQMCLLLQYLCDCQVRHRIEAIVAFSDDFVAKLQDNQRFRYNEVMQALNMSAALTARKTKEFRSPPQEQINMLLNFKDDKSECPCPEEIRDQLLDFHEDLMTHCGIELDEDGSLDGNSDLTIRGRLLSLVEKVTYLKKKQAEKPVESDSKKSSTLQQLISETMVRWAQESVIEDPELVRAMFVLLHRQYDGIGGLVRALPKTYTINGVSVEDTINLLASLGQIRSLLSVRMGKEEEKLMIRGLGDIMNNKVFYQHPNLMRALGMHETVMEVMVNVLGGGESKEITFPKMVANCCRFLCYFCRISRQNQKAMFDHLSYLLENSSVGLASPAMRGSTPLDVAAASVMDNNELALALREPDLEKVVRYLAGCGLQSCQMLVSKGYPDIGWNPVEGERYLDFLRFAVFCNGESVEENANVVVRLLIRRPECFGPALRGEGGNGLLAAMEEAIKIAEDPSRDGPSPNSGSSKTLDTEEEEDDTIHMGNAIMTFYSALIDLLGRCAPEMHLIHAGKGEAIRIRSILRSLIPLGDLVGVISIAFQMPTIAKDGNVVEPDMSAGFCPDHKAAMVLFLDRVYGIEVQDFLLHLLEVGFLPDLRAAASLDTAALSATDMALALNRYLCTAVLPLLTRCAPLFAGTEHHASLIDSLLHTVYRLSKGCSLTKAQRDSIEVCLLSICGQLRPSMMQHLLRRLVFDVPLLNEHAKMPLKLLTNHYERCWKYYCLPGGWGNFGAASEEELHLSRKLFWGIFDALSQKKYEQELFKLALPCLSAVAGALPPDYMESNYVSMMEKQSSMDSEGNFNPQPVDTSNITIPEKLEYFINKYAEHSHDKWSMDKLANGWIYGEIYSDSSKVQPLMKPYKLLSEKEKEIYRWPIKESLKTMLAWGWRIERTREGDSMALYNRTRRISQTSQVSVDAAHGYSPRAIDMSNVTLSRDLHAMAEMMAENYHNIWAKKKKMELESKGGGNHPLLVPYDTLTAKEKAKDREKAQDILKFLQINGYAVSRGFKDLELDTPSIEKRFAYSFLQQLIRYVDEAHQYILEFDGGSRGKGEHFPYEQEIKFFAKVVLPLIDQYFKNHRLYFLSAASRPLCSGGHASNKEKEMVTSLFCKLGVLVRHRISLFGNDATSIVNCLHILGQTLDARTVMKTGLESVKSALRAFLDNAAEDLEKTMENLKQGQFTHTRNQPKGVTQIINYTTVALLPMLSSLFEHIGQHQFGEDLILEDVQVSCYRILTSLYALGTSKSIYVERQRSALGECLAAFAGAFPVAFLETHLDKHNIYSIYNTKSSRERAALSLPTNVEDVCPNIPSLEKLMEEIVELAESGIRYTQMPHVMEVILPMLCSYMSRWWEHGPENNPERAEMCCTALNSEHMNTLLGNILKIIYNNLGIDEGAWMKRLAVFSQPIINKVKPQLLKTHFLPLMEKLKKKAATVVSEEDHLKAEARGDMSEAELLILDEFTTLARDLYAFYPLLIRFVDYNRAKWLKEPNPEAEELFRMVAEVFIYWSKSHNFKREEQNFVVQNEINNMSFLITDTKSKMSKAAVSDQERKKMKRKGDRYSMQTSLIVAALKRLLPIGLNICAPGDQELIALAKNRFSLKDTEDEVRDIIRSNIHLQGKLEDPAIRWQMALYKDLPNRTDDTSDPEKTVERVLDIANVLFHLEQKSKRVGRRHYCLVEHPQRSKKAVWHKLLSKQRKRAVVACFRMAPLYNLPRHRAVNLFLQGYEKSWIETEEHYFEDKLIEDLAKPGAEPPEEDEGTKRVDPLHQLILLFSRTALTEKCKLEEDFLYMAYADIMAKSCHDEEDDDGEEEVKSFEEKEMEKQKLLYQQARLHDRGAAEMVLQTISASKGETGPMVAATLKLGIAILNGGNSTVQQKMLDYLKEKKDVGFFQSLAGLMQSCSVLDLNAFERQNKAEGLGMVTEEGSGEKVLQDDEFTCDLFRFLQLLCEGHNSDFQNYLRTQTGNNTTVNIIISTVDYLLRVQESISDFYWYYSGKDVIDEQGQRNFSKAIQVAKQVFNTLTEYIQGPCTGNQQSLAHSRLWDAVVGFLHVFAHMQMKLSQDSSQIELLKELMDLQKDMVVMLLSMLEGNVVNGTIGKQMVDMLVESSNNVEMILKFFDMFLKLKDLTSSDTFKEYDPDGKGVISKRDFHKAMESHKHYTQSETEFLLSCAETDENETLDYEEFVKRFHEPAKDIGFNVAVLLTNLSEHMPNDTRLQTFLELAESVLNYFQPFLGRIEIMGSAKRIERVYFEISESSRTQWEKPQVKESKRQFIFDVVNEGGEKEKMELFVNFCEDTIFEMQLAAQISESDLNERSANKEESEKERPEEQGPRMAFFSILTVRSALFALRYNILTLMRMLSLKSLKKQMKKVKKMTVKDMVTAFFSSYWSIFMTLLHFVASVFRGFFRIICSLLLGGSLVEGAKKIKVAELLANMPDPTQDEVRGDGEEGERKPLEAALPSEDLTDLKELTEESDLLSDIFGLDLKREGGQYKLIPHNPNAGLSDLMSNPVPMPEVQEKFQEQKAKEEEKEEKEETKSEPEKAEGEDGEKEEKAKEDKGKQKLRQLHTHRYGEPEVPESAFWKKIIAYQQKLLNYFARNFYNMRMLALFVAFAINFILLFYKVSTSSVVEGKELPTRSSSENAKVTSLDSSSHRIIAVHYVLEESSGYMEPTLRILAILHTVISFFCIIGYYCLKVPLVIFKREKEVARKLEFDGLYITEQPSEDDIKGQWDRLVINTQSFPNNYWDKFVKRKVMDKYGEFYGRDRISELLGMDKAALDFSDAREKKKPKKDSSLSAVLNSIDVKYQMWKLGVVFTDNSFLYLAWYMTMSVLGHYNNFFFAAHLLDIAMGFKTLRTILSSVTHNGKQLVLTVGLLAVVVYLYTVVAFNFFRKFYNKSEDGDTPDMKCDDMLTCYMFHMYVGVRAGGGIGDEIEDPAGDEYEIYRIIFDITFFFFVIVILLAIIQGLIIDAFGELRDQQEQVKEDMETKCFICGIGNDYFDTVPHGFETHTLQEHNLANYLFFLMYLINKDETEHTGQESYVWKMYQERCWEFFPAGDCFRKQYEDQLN
UniProt P68106: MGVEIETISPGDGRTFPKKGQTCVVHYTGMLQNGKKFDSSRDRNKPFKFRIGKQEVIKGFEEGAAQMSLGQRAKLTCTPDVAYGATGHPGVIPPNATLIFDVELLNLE

B1: NADPH oxidase 2 (NOX2) (protein, UniProt P04839 1-570)
chain: MGNWAVNEGLSIFVILVWLGLNVFLFVWYYRVYDIPPKFFYTRKLLGSALALARAPAACLNFNCMLILLPVCRNLLSFLRGSSACCSTRVRRQLDRNLTFHKMVAWMIALHSAIHTIAHLFNVEWCVNARVNNSDPYSVALSELGDRQNESYLNFARKRIKNPEGGLYLAVTLLAGITGVVITLCLILIITSSTKTIRRSYFEVFWYTHHLFVIFFIGLAIHGAERIVRGQTAESLAVHNITVCEQKISEWGKIKECPIPQFAGNPPMTWKWIVGPMFLYLCERLVRFWRSQQKVVITKVVTHPFKTIELQMKKKGFKMEVGQYIFVKCPKVSKLEWHPFTLTSAPEEDFFSIHIRIVGDWTEGLFNACGCDKQEFQDAWKLPKIAVDGPFGTASEDVFSYEVVMLVGAGIGVTPFASILKSVWYKYCNNATNLKLKKIYFYWLCRDTHAFEWFADLLQLLESQMQERNNAGFLSYNIYLTGWDESQANHFAVHHDEEKDVITGLKQKTLYGRPNWDNEFKTIASQHPNTRIGVFLCGPEALAETLSKQSISNSESGPRGVHFIFNKENF

Columns and labels:
[1] = target: ryanodine receptor/calcium (Ca2+) release channel RyR2 (human (endogenous in heart, lung and brain tissue)) (UniProt Q92736); assay: co-IP
[2] = target: ryanodine receptor/calcium (Ca2+) release channel RyR2 (human (endogenous in heart, lung and brain tissue)) (UniProt Q92736); assay: co-IP; remark: listed apart in the source

| Molecule | binding [1] | binding [2] |
| --- | --- | --- |
| calstabin2 (from UniProt P68106 1-108) | binds |  |
| B1 |  | binds |
